Results deposited as PubChem BioAssay AID1259424 (University of Nebraska Medical Center, 2018).
Screen: 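Find knockdowns that reproduce the expression shifts seen after KSR1 loss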 (primary screen). System: human HCT116 colon cancer cells. Reagent: siRNA pool against human genes, 50 nM. Measured: 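Log2 levels of six mRNAs (branched-DNA multiplex), adjusted by two reference genes and the non-targeting median, then scored against the average KSR1 knockdown pattern as Pearson r and euclidean distance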. Reading the numbers: mean correlation with KSR1 profile: higher = expression change more like KSR1 knockdown.
The deposit covers about 14,000 reagents; this is a random part of them. 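Higher correlation or smaller distance means closer resemblance to KSR1 loss; control wells, including KSR1 knockdowns, recur on many plates.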 Not all columns of the deposit are shown. Not given: the time to read-out.

What did the screen give for TMEM243 (GeneID 79161) [SID364002788]?
mean correlation with KSR1 profile: 0.702

With DMRTC2 (GeneID 63946) [SID364004299], what does the deposit list?
mean correlation with KSR1 profile: -0.613

With SPX (GeneID 80763) [SID364003364], how do the results read?
mean correlation with KSR1 profile: 0.601

How did the screen score TACR3 (GeneID 6870) [SID363992356]?
mean correlation with KSR1 profile: 0.981

For RELA (GeneID 5970) [SID364002264], what does the deposit list?
mean correlation with KSR1 profile: 0.38

How did the screen score CCNT2 (GeneID 905) [SID363992526]?
mean correlation with KSR1 profile: 0.303

With IL16 (GeneID 3603) [SID363995488], what was measured?
mean correlation with KSR1 profile: 0.412

What did the screen give for CARD10 (GeneID 29775) [SID363998927]?
mean correlation with KSR1 profile: 0.586

What did the screen give for ME3 (GeneID 10873) [SID363997463]?
mean correlation with KSR1 profile: -0.507

Which result is listed for NCAPG2 (GeneID 54892) [SID364000505]?
mean correlation with KSR1 profile: -0.4

For PABPN1 (GeneID 8106) [SID363995611], what does the deposit list?
mean correlation with KSR1 profile: -0.331

How did the screen score CSF2RB (GeneID 1439) [SID363991726]?
mean correlation with KSR1 profile: 0.0157

With SGK3 (GeneID 23678) [SID363998381], how do the results read?
mean correlation with KSR1 profile: -0.439

For SLC29A3 (GeneID 55315) [SID364000992], how do the results read?
mean correlation with KSR1 profile: -0.514

With DCAF8 (GeneID 50717) [SID363999675], what was measured?
mean correlation with KSR1 profile: -0.083

What did the screen give for N4BP1 (GeneID 9683) [SID364004758]?
mean correlation with KSR1 profile: -0.318

A portion from the list above, as a working copy:
SLC29A3 (GeneID 55315) [SID364000992] → mean correlation with KSR1 profile = -0.514
DCAF8 (GeneID 50717) [SID363999675] → mean correlation with KSR1 profile = -0.083
N4BP1 (GeneID 9683) [SID364004758] → mean correlation with KSR1 profile = -0.318

The results go on:
With IL11 (GeneID 3589) [SID363991957], what does the deposit list?
mean correlation with KSR1 profile: 0.171

What is on record for EFNA4 (GeneID 1945) [SID363996149]?
mean correlation with KSR1 profile: 0.257

Which result is listed for LINGO1 (GeneID 84894) [SID364004188]?
mean correlation with KSR1 profile: 0.744

With GOLGA1 (GeneID 2800) [SID363993284], what was measured?
mean correlation with KSR1 profile: 0.171

Which result is listed for BBS2 (GeneID 583) [SID364003673]?
mean correlation with KSR1 profile: -0.54

How did the screen score HAUS4 (GeneID 54930) [SID364000549]?
mean correlation with KSR1 profile: -0.423

For ITPKA (GeneID 3706) [SID363993420], how do the results read?
mean correlation with KSR1 profile: 0.509

With VPS36 (GeneID 51028) [SID363999848], what does the deposit list?
mean correlation with KSR1 profile: -0.773

How did the screen score ZC2HC1C (GeneID 79696) [SID364002941]?
mean correlation with KSR1 profile: 0.108

How did the screen score RMP64 (GeneID 25871) [SID363999475]?
mean correlation with KSR1 profile: -0.378

For PRB4 (GeneID 5545) [SID363993882], what does the deposit list?
mean correlation with KSR1 profile: 0.416

What did the screen give for HAPSTR1 (GeneID 29035) [SID363998602]?
mean correlation with KSR1 profile: -0.383
